The data set can be described thus: general procedure: Fmoc solid-phase peptide synthesis; Rink amide resin (loading 0.15 mmol/g); rink amide AM resin (loading = 0.33 mmol/g); HCTU/DIPEA. The note with it: whole synthesis; for isolated yield: scale of the general procedure 0.15 mmol.

Some peptides are written in HELM: one residue between dots, names in brackets for other building blocks, links after the first $.

The text below walks through data of PMC7758422 (Frontiers in Chemistry, 2020).

Turning to “PEPTIDE1{[ac].G.L.F.A.V.I.K.K.[S5].A.S.V.[S5].K.G.L.[am]}$PEPTIDE1,PEPTIDE1,10:R3-14:R3$$$V2.0”, the isolated mass was 170 mg and the isolated yield is listed as 66%.
On to “PEPTIDE1{[ac].G.[R8].F.A.V.I.K.K.[S5].A.S.V.I.K.G.L.[am]}$PEPTIDE1,PEPTIDE1,3:R3-10:R3$$$V2.0”, for which the isolated mass came to 166 mg and the isolated yield is recorded as 63%.
For “PEPTIDE1{[ac].G.[S5].F.A.V.[S5].K.K.V.A.S.V.I.K.G.L.[am]}$PEPTIDE1,PEPTIDE1,3:R3-7:R3$$$V2.0”, in that order: 161 mg and 63%.
For “PEPTIDE1{[ac].G.L.F.A.[S5].I.K.K.[S5].A.S.V.I.K.G.L.[am]}$PEPTIDE1,PEPTIDE1,6:R3-10:R3$$$V2.0”, in that order: 161 mg and 62%.
The matching figures for “PEPTIDE1{[ac].G.L.F.A.V.I.K.K.V.A.[S5].V.I.K.[S5].L.[am]}$PEPTIDE1,PEPTIDE1,12:R3-16:R3$$$V2.0”: 166 mg and 62%.
As to “PEPTIDE1{[ac].G.L.F.A.V.[S5].K.K.V.[S5].S.V.I.K.G.L.[am]}$PEPTIDE1,PEPTIDE1,7:R3-11:R3$$$V2.0”, the isolated mass was 186 mg and the isolated yield worked out at 71%.
Substance “PEPTIDE1{[ac].G.L.F.A.V.I.K.K.V.A.S.V.I.K.G.L.[am]}$$$$V2.0” returned an isolated mass of 169 mg and an isolated yield of 67%.
For “PEPTIDE1{[ac].G.L.F.A.V.[R8].K.K.V.A.S.V.[S5].K.G.L.[am]}$PEPTIDE1,PEPTIDE1,7:R3-14:R3$$$V2.0”, in that order: 162 mg and 62%.
